The supplement of paper PMC10849652
This is one part of the list.

Amino acid sequences for entries named in this document (tags omitted). A change or cut given only in a name is not applied to a line headed by its entry.
UniProt O15212, whole entry, looked up: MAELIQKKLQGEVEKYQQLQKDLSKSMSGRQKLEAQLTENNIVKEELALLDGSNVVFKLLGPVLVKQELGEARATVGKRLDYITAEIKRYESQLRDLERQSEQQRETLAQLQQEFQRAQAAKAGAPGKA
UniProt P30086: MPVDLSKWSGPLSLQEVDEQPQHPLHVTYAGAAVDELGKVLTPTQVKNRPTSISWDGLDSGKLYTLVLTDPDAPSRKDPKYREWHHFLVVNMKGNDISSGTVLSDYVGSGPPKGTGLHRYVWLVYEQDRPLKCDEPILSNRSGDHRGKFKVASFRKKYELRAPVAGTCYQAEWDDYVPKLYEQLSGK
UniProt Q9BUH6, whole entry, looked up: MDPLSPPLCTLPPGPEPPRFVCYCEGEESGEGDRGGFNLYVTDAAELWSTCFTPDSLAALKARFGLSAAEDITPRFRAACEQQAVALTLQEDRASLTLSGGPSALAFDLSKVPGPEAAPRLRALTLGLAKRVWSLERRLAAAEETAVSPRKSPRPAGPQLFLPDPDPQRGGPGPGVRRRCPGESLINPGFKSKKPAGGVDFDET
UniProt Q99471, whole entry, looked up: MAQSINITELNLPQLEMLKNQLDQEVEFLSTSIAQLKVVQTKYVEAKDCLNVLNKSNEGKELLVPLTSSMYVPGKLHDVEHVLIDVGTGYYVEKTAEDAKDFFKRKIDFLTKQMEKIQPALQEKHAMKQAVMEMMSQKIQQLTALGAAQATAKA
UniProt O96011: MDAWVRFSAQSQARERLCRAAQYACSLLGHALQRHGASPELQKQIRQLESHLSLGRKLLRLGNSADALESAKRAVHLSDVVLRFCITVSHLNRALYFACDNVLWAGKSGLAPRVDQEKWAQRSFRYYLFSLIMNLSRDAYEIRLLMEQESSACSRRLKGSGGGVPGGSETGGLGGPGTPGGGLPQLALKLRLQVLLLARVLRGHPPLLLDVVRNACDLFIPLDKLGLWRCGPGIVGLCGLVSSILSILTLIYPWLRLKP
UniProt P17858: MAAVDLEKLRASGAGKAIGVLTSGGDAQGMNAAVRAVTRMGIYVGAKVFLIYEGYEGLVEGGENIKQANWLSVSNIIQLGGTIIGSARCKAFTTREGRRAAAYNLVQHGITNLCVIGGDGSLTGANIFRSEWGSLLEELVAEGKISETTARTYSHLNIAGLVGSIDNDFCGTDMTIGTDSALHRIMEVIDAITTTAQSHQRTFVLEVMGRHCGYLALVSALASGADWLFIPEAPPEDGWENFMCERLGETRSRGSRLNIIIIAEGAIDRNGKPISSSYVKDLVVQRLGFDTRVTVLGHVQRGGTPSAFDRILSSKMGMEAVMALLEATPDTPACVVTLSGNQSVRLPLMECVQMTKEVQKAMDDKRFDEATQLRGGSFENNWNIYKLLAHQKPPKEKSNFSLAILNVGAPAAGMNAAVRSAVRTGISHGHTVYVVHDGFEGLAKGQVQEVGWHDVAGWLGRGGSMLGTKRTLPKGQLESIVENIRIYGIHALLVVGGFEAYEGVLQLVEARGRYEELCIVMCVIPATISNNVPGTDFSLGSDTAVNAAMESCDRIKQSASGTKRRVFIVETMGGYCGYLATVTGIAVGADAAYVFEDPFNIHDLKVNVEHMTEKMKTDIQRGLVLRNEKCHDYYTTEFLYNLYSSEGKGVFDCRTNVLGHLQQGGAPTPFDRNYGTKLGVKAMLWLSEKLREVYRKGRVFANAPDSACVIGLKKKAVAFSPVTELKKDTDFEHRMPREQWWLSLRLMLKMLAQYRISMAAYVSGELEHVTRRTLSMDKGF
UniProt P12955: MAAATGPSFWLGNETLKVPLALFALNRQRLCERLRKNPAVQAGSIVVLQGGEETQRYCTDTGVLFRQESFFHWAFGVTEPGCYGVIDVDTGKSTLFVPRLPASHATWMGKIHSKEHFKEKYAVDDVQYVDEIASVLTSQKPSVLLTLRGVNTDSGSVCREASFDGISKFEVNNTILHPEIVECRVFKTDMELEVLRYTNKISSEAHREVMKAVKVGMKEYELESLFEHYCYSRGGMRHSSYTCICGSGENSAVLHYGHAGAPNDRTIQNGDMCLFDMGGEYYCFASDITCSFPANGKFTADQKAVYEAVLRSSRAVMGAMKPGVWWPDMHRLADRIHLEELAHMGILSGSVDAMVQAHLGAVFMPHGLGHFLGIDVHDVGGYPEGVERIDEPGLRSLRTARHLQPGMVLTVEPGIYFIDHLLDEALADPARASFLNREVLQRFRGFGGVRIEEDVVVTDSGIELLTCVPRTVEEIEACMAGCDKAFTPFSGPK
UniProt Q92968: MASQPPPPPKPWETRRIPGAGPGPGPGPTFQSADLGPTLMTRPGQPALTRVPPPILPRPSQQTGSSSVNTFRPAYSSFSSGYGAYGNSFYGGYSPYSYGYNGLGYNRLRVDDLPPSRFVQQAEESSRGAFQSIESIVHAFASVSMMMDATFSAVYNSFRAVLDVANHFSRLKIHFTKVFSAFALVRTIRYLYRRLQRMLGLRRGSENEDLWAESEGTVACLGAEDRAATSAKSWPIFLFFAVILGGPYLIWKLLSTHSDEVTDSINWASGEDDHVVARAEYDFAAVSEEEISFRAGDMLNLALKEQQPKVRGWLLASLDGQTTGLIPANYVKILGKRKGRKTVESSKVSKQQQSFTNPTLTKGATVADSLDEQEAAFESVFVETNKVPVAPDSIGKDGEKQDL
UniProt P61457: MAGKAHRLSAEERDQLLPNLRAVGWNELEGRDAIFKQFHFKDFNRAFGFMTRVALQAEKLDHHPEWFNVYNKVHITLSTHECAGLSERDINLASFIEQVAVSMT
UniProt Q9UGN5: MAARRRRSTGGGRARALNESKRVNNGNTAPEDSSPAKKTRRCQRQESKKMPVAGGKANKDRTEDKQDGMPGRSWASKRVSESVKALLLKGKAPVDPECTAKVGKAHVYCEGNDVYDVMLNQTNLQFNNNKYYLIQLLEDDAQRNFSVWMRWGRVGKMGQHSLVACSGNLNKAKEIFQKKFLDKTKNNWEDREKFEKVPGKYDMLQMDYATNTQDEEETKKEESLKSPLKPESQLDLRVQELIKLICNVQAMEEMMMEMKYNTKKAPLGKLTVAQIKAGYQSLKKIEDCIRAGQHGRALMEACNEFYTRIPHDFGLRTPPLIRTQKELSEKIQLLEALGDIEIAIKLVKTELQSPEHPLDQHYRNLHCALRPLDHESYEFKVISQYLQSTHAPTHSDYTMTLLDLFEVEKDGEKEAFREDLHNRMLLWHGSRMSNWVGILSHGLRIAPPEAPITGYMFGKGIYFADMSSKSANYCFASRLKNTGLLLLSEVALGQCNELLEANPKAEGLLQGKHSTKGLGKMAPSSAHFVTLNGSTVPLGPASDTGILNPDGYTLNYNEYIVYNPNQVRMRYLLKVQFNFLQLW
UniProt Q8IZL8: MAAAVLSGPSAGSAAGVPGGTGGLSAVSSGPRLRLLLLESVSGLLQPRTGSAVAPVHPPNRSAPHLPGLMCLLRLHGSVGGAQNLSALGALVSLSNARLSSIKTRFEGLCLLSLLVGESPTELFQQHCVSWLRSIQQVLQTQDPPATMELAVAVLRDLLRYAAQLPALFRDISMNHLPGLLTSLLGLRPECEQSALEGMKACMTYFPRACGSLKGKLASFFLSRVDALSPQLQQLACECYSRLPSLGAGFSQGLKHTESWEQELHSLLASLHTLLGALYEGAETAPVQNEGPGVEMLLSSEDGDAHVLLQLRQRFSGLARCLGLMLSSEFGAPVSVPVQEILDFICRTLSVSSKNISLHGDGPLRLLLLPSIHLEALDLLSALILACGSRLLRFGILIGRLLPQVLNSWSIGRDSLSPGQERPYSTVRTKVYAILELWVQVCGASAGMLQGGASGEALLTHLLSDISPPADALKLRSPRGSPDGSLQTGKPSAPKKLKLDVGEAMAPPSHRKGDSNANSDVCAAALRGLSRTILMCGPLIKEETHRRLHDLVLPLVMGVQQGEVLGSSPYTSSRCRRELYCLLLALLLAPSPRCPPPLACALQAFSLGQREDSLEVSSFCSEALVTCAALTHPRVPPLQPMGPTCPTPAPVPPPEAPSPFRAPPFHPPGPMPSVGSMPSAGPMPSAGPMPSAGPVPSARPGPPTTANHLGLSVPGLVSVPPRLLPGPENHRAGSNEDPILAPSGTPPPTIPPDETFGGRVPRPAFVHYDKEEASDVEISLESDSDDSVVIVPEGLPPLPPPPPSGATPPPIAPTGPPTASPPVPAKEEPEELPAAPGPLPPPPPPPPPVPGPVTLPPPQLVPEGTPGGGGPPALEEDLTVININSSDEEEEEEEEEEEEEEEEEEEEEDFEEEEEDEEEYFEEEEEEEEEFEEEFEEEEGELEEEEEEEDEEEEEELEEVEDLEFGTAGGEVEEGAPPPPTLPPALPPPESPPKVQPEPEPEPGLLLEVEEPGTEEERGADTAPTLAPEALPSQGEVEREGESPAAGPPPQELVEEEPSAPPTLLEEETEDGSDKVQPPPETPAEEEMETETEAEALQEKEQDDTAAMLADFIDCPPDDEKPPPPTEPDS
UniProt Q9BUL8: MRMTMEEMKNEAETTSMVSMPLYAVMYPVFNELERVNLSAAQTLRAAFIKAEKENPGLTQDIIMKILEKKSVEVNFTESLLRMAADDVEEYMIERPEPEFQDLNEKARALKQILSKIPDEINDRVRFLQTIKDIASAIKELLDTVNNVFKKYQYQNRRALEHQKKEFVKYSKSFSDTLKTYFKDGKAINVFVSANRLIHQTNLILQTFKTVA
UniProt Q6P996: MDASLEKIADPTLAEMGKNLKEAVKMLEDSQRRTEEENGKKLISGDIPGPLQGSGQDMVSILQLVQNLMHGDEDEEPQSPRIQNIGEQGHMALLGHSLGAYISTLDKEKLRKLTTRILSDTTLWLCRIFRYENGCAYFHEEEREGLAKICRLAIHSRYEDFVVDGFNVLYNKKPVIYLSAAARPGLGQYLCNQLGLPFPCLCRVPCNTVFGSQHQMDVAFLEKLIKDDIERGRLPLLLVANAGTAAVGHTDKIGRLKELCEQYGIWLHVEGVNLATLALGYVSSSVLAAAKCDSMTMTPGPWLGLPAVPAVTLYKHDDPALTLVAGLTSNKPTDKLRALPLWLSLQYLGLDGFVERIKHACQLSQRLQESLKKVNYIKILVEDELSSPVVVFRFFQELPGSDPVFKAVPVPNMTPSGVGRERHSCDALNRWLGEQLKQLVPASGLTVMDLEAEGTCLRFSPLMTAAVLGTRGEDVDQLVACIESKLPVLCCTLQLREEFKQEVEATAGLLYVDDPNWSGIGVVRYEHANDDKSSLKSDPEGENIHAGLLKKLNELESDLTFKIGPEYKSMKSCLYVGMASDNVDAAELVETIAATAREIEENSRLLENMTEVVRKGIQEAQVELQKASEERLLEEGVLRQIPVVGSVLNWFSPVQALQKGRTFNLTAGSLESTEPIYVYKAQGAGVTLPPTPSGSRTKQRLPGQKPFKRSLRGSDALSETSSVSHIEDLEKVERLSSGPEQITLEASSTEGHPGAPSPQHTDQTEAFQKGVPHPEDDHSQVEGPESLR
UniProt Q9H2J4: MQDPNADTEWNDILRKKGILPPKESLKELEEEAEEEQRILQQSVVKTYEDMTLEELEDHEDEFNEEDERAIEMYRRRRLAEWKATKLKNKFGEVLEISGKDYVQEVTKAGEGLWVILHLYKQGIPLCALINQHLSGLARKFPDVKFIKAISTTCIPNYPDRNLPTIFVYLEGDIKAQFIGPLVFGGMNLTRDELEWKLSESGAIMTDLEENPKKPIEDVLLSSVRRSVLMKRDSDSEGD
UniProt Q6L8Q7: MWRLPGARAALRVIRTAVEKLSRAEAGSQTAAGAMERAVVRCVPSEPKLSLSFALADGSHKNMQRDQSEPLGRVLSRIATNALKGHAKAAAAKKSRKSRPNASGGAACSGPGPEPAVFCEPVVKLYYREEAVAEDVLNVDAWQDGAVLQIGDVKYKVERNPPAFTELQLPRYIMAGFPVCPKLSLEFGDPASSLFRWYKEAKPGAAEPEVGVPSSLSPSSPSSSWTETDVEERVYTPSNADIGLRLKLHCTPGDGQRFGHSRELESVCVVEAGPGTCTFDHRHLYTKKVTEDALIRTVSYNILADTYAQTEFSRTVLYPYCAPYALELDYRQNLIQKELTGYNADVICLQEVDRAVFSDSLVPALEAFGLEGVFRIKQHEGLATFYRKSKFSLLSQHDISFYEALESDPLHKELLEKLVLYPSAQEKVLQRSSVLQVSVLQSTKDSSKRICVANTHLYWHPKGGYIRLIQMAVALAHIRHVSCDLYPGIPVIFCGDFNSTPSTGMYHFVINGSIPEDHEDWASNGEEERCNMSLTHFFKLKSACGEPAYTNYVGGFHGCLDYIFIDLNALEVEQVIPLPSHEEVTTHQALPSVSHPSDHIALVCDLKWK
UniProt Q8N5Y8: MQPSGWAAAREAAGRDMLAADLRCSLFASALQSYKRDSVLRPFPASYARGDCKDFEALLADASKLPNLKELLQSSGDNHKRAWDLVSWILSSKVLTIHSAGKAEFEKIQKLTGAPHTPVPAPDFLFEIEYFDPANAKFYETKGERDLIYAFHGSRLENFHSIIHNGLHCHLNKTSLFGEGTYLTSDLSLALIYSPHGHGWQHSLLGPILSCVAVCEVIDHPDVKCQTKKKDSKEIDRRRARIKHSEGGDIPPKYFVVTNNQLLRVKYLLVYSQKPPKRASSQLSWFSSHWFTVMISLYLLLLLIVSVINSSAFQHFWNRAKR

compound: CCCS(=O)(=O)Nc1ccc(F)c(C(=O)c2c[nH]c3ncc(Cl)cc23)c1F; test: log2 fold change, soluble protein after heating vs DMSO (PISA); higher = thermal stabilisation; K562 lysate, 10 uM; active = over 0.2 and 3.5 SD of the protein, either way, in both replicates (recomputed)
How it was run: (§1)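 Thermal stability, expressed as log-two fold change relative to solvent controls, is given from duplicates. Crude K562 extract in PBS pH 7.4 with 1 mM MgCl2, at 1 mg/mL protein, was treated with 10 μM compound for 30 min and heated in aliquots for 3 min across 48°C-58°C. After pooling, adjustment to 0.5% NP-40 at 4°C and centrifugation at 21,000xg for 90 min, supernatant protein was measured by TMTpro 16plex LC-MS/MS with channel sums equalised.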

log2 fold change, inactive:
PDCD2 (UniProt Q16342) -0.095
PGAM1 (UniProt P18669) 0.035
PDCD6IP isoform 2 (UniProt Q8WUM4) -0.005
PC (UniProt P11498) 0.034
PCBP2 isoform 3 (UniProt Q15366) -0.004
PCIF1 (UniProt Q9H4Z3) -0.012
PFDN6 (UniProt O15212) -0.033
PCYT1A (UniProt P49585) 0.024
PCBP3 (UniProt P57721) -0.007
PDS5B (UniProt Q9NTI5) 0.03
PEBP1 (UniProt P30086) 0.002
PAXX (UniProt Q9BUH6) -0.014
PFDN5 (UniProt Q99471) -0.053
PGAM5 (UniProt Q96HS1) -0.006
PEX11B (UniProt O96011) 0.004
PFKL isoform 2 (UniProt P17858) -0.152
PEPD (UniProt P12955) 0.024
PEX13 (UniProt Q92968) 0.054
PCBD1 (UniProt P61457) 0.003
PARN (UniProt O95453) 0.017
PARP2 (UniProt Q9UGN5) -0.005
PELP1 (UniProt Q8IZL8) 0.007
PDCD10 (UniProt Q9BUL8) -0.002
PDXDC1 (UniProt Q6P996) -0.02
PDCL3 (UniProt Q9H2J4) 0
PDF (UniProt Q9HBH1) 0.03
PAXIP1 (UniProt Q6ZW49) 0.037
PARP14 (UniProt Q460N5) 0.062
PDXP (UniProt Q96GD0) -0.017
PDE12 (UniProt Q6L8Q7) 0.013
PARP16 isoform 3 (UniProt Q8N5Y8) 0.004
PFAS (UniProt O15067) 0.023
PDPR (UniProt Q8NCN5) 0.032

compound: CCN(CCCOc1ccc2c(Nc3cc(CC(=O)Nc4cccc(F)c4)[nH]n3)ncnc2c1)CCOP(=O)(O)O [barasertib]; test: as above
How it was run: as §1

log2 fold change, inactive:
PDCD2 (UniProt Q16342) 0.042
PGAM1 (UniProt P18669) -0.061
PDCD6IP isoform 2 (UniProt Q8WUM4) -0.008
PC (UniProt P11498) 0.021
PCBP2 isoform 3 (UniProt Q15366) -0.006
PCIF1 (UniProt Q9H4Z3) 0.088
PFDN6 (UniProt O15212) 0.205
PCYT1A (UniProt P49585) -0.015
PCBP3 (UniProt P57721) -0.007
PDS5B (UniProt Q9NTI5) 0.05
PEBP1 (UniProt P30086) 0.026
PAXX (UniProt Q9BUH6) -0.044
PFDN5 (UniProt Q99471) 0.07
PGAM5 (UniProt Q96HS1) 0.015
PEX11B (UniProt O96011) -0.028
PFKL isoform 2 (UniProt P17858) 0.005
PEPD (UniProt P12955) -0.011
PEX13 (UniProt Q92968) 0.042
PCBD1 (UniProt P61457) 0.041
PARN (UniProt O95453) 0.025
PARP2 (UniProt Q9UGN5) 0.014
PELP1 (UniProt Q8IZL8) 0
PDCD10 (UniProt Q9BUL8) 0.006
PDXDC1 (UniProt Q6P996) 0.008
PDCL3 (UniProt Q9H2J4) -0.038
PDF (UniProt Q9HBH1) 0.028
PAXIP1 (UniProt Q6ZW49) 0.046
PARP14 (UniProt Q460N5) 0.038
PDXP (UniProt Q96GD0) 0.008
PDE12 (UniProt Q6L8Q7) -0.015
PARP16 isoform 3 (UniProt Q8N5Y8) 0.026
PFAS (UniProt O15067) 0.015
PDPR (UniProt Q8NCN5) 0.011

compound: CC[C@@H]1C(=O)N(C)c2cnc(Nc3ccc(C(=O)NC4CCN(C)CC4)cc3OC)nc2N1C1CCCC1; test: as above
How it was run: as §1

log2 fold change, inactive:
PDCD2 (UniProt Q16342) -0.064
PGAM1 (UniProt P18669) 0.007
PDCD6IP isoform 2 (UniProt Q8WUM4) -0.036
PC (UniProt P11498) -0.041
PCBP2 isoform 3 (UniProt Q15366) -0.021
PCIF1 (UniProt Q9H4Z3) 0.023
PFDN6 (UniProt O15212) 0.008
PCYT1A (UniProt P49585) 0.042
PCBP3 (UniProt P57721) -0.003
PDS5B (UniProt Q9NTI5) -0.049
PEBP1 (UniProt P30086) 0.023
PAXX (UniProt Q9BUH6) 0.008
PFDN5 (UniProt Q99471) 0.033
PGAM5 (UniProt Q96HS1) 0.015
PEX11B (UniProt O96011) 0.041
PFKL isoform 2 (UniProt P17858) 0.036
PEPD (UniProt P12955) -0.008
PEX13 (UniProt Q92968) 0.031
PCBD1 (UniProt P61457) 0.062
PARN (UniProt O95453) 0.012
PARP2 (UniProt Q9UGN5) -0.141
PELP1 (UniProt Q8IZL8) 0.005
PDCD10 (UniProt Q9BUL8) -0.012
PDXDC1 (UniProt Q6P996) 0.03
PDCL3 (UniProt Q9H2J4) 0.045
PDF (UniProt Q9HBH1) -0.118
PAXIP1 (UniProt Q6ZW49) 0.02
PARP14 (UniProt Q460N5) 0.007
PDXP (UniProt Q96GD0) 0.036
PDE12 (UniProt Q6L8Q7) -0.016
PARP16 isoform 3 (UniProt Q8N5Y8) 0.063
PFAS (UniProt O15067) -0.048
PDPR (UniProt Q8NCN5) 0.043
